# Reference: PubChem BioAssay AID1671190 (National Center for Advancing Translational Sciences (NCATS), 2021)
# By UniProt entry, the sequences of proteins in these tests, tags left out. Where a name states a change or a piece, a line headed by the entry shows the natural chain unless it says otherwise.
# UniProt P18054: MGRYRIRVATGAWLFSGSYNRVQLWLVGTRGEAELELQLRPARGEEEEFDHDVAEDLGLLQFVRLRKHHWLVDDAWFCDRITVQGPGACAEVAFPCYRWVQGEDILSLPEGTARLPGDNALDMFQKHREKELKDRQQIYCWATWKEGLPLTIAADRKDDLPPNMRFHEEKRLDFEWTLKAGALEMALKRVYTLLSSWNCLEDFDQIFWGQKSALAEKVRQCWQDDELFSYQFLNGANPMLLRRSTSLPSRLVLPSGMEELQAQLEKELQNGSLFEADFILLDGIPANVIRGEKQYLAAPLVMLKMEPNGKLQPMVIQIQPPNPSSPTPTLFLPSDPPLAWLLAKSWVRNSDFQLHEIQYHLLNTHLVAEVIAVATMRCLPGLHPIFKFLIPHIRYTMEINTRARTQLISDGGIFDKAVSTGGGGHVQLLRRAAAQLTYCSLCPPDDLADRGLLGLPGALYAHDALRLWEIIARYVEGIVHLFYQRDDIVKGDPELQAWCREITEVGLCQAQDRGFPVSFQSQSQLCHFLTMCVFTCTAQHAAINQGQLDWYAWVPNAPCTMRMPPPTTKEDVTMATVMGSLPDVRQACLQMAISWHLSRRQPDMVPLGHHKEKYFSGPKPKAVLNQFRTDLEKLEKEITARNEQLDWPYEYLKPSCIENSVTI
# About 6,100 (1.1%) of roughly 580,000 compounds were called active. Inconclusive means that the source gave no clear call. Such entries were picked first, then a sample of the others. Calls follow the shape of the dose curve; as a rule, active = well fitted inhibition curve with a large enough effect; inconclusive = small, poorly fitted or top-dose-only effect, or another doubt; inactive = no such curve, though single readings can be large or run the other way. A potency beside an inconclusive call is a rough fit, not a confirmed value.
# Target: Polyunsaturated fatty acid lipoxygenase ALOX12 (Homo sapiens) (UniProt P18054)
# Test: Primary qHTS assay for inhibitors of human arachidonate 12S-lipoxygenase (ALOX12): Round 2
# Settings: purified 12hLO, xylenol orange hydroperoxide absorbance; activity change, negative = inhibition: at 108 µM (top of the series) unless noted
# Outline: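 Hydroperoxide product was detected by ferrous iron/xylenol orange as the 573 to 405 nm absorbance ratio. Arachidonic acid at 40 uM (final) was turned over for 30 min at room temperature by 150 nM human 12hLO, pH 7.0 Hepes buffer, after 15 min compound preincubation.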
# % is scaled to controls: 0 for no effect and ±100 for the full control effect; potency is read from the fitted curve at half-maximal effect.
Structure (SMILES),Potency,"activity change, negative = inhibition"
COc1ccc2[nH]c(=O)c(CN(C(=O)c3ccco3)C(C)C)cc2c1,"inconclusive: 44.7 µM [inhibitor, partial curve, poor fit]",–
CCOc1ccc(NS(=O)(=O)c2ccc(NC(=S)NC(=O)CC(C)C)cc2)cc1,"inconclusive: 15.8 µM [inhibitor, partial curve, poor fit]",–
CC1(C)CC(=O)c2c(O)cc(OCC(=O)Nc3ccc(CCO)cc3)cc2O1,"inconclusive: 100 µM [inhibitor, single point]",–
CCOC(=O)C1=CN(Cc2cccc(F)c2)S(=O)(=O)N(CC)C1CCc1ccccc1 (stereo not given),"inconclusive: 126 µM [inhibitor, single point]",–
COCCNC(=O)C(c1ccco1)N(C(=O)Cn1nnc2ccccc21)c1cc(C)ccc1C (stereo not given),"inconclusive: 44.7 µM [inhibitor, partial curve, poor fit]",–
CNC(=O)c1nnn(Cc2ccccc2)c1NC(=O)C(F)(F)F,"inconclusive: 31.6 µM [inhibitor, partial curve, poor fit]",–
O=C(O)C1=C[C@@H](C2CCCCC2)C[C@@H](OCCCCO)O1,"inconclusive: 44.7 µM [inhibitor, partial curve, poor fit]",–
C/C(=N\NC(=O)c1ccc(NS(=O)(=O)c2cccs2)cc1)c1ccc2c(c1)OCO2,–,inactive: -0.296%
NC(=O)c1ccccc1OCC(=O)c1ccc(Cl)cc1,–,inactive: -4.8%
CO[C@H]1/C=C/O[C@@]2(C)Oc3c(C)c(O)c4c(O)c(c(C=NN5CCN(C)CC5)c(O)c4c3C2=O)NC(=O)/C(C)=C\C=C\[C@H](C)[C@H](O)[C@@H](C)[C@@H](O)[C@@H](C)[C@H](OC(C)=O)[C@@H]1C,"inconclusive: 50.1 µM [inhibitor, partial curve, poor fit]",–
[O-][N+]1=c2ccc(Nc3ccccc3)cc2=NC12CCCCC2,–,inactive: 0%
O=S1(=O)N[C@@H](Cc2ccccc2)COc2cc(NC3CC3)ccc21,"inconclusive: 89.1 µM [inhibitor, partial curve, poor fit]",–
CN(C)c1ccc(C=Nc2ccc(N(C)C)cc2)cc1,"inconclusive: 70.8 µM [inhibitor, partial curve, poor fit]",–
CCOC(=O)C1=C(C)N(C)C(=S)NC1c1cc(OC)ccc1OC (stereo not given),"inconclusive: 50.1 µM [inhibitor, partial curve, poor fit]",–
N#Cc1cccc(NC(=O)Cn2c3[n+](c4ccc(C(F)(F)F)cc42)CCCCC3)c1,"inconclusive: 50.1 µM [inhibitor, partial curve, poor fit]",–

# Entries of single compounds as entered above.
# C/C(=N\NC(=O)c1ccc(NS(=O)(=O)c2cccs2)cc1)c1ccc2c(c1)OCO2 reads activity change, negative = inhibition: inactive: -0.296%
# CC1(C)CC(=O)c2c(O)cc(OCC(=O)Nc3ccc(CCO)cc3)cc2O1 reads Potency: inconclusive: 100 µM [inhibitor, single point]
